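A panel of P. falciparum strains inside erythrocytes is exposed to compounds for three days, then a DNA-binding dye reports the amount of parasite DNA.
Each compound was titrated across a series from about 0.000037 to 29 µM.
The number is the fitted AC50, the concentration giving a half-maximal change in signal; a lower value means higher potency, whether the curve shows a decrease or an increase.
Calls follow the curve class and fit quality: every row here is inconclusive, covering signal-raising curves and weak, poorly fitted, partial or highest-dose-only inhibition curves.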

Values are in µM.
Every entry below has the call inconclusive.
Only part of the assay is shown, chiefly results filed as inconclusive.
A potency from a partial, single-point or poor curve is only a rough figure.

For Cc1ccc(C(=O)C(C)CN2CCCCC2)cc1 (stereo not given) [CP191] the result was Potency 12.59 µM (inhibitor, single point).
For Cc1ccc(C(=O)C(C)CN2CCCCC2)cc1 (stereo not given) [PAD] the result was Potency 17.78 µM (inhibitor, single point).
For Cc1ccc(C(=O)C(C)CN2CCCCC2)cc1 (stereo not given) [PC15] the result was Potency 17.78 µM (inhibitor, single point).
For Cc1ccc(C(=O)C(C)CN2CCCCC2)cc1 (stereo not given) [P94_40] the result was Potency 10 µM (inhibitor, single point).
For Cc1ccc(C(=O)C(C)CN2CCCCC2)cc1 (stereo not given) [HB3] the result was Potency 17.78 µM (inhibitor, single point).
For Cc1ccc(C(=O)C(C)CN2CCCCC2)cc1 (stereo not given) [CP269] the result was Potency 13.46 µM (inhibitor, single point).
For Cc1ccc(C(=O)C(C)CN2CCCCC2)cc1 (stereo not given) [TAB109] the result was Potency 10 µM (inhibitor, single point).
For Cc1ccc(C(=O)C(C)CN2CCCCC2)cc1 (stereo not given) [N140] the result was Potency 17.78 µM (inhibitor, single point).
For Cc1ccc(C(=O)C(C)CN2CCCCC2)cc1 (stereo not given) [CP260] the result was Potency 15.85 µM (inhibitor, single point).
For Cc1ccc(C(=O)C(C)CN2CCCCC2)cc1 (stereo not given) [ATS189] the result was Potency 17.78 µM (inhibitor, single point).
For Cc1ccc(C(=O)C(C)CN2CCCCC2)cc1 (stereo not given) [ECU] the result was Potency 17.78 µM (inhibitor, single point).
For Cc1ccc(C(=O)C(C)CN2CCCCC2)cc1 (stereo not given) [DIV17] the result was Potency 13.46 µM (inhibitor, single point).
For C[C@H]1C[C@@H]2[C@H]3CCC4=CC(=O)C=C[C@@]4(C)[C@@]3(Cl)[C@@H](O)C[C@]2(C)[C@]1(OC(=O)c1ccco1)C(=O)CCl [TAB113] the result was Potency 7.08 µM (inhibitor, single point).
For C[C@H]1C[C@@H]2[C@H]3CCC4=CC(=O)C=C[C@@]4(C)[C@@]3(Cl)[C@@H](O)C[C@]2(C)[C@]1(OC(=O)c1ccco1)C(=O)CCl [CP237] the result was Potency 7.08 µM (inhibitor, single point).
For C[C@H]1C[C@@H]2[C@H]3CCC4=CC(=O)C=C[C@@]4(C)[C@@]3(Cl)[C@@H](O)C[C@]2(C)[C@]1(OC(=O)c1ccco1)C(=O)CCl [C2A] the result was Potency 7.08 µM (inhibitor, single point).
For C[C@H]1C[C@@H]2[C@H]3CCC4=CC(=O)C=C[C@@]4(C)[C@@]3(Cl)[C@@H](O)C[C@]2(C)[C@]1(OC(=O)c1ccco1)C(=O)CCl [CP269] the result was Potency 7.208 µM (inhibitor, single point).
For C[C@H]1C[C@@H]2[C@H]3CCC4=CC(=O)C=C[C@@]4(C)[C@@]3(Cl)[C@@H](O)C[C@]2(C)[C@]1(OC(=O)c1ccco1)C(=O)CCl [CP329] the result was Potency 8.087 µM (inhibitor, single point).
For C[C@H]1C[C@@H]2[C@H]3CCC4=CC(=O)C=C[C@@]4(C)[C@@]3(Cl)[C@@H](O)C[C@]2(C)[C@]1(OC(=O)c1ccco1)C(=O)CCl [CP297] the result was Potency 8.087 µM (inhibitor, single point).
For C[C@H]1C[C@@H]2[C@H]3CCC4=CC(=O)C=C[C@@]4(C)[C@@]3(Cl)[C@@H](O)C[C@]2(C)[C@]1(OC(=O)c1ccco1)C(=O)CCl [CP250] the result was Potency 3.981 µM (inhibitor, single point).
For C[C@H]1C[C@@H]2[C@H]3CCC4=CC(=O)C=C[C@@]4(C)[C@@]3(Cl)[C@@H](O)C[C@]2(C)[C@]1(OC(=O)c1ccco1)C(=O)CCl [CP268] the result was Potency 8.087 µM (inhibitor, single point).
For C[C@H]1C[C@@H]2[C@H]3CCC4=CC(=O)C=C[C@@]4(C)[C@@]3(Cl)[C@@H](O)C[C@]2(C)[C@]1(OC(=O)c1ccco1)C(=O)CCl [CP315] the result was Potency 5.726 µM (inhibitor, single point).
For C[C@H]1C[C@@H]2[C@H]3CCC4=CC(=O)C=C[C@@]4(C)[C@@]3(Cl)[C@@H](O)C[C@]2(C)[C@]1(OC(=O)c1ccco1)C(=O)CCl [P93_24] the result was Potency 7.08 µM (inhibitor, single point).
For C[C@H]1C[C@@H]2[C@H]3CCC4=CC(=O)C=C[C@@]4(C)[C@@]3(Cl)[C@@H](O)C[C@]2(C)[C@]1(OC(=O)c1ccco1)C(=O)CCl [FAB9] the result was Potency 7.08 µM (inhibitor, single point).
For C[C@H]1C[C@@H]2[C@H]3CCC4=CC(=O)C=C[C@@]4(C)[C@@]3(Cl)[C@@H](O)C[C@]2(C)[C@]1(OC(=O)c1ccco1)C(=O)CCl [PC49] the result was Potency 7.08 µM (inhibitor, single point).
For C[C@H]1C[C@@H]2[C@H]3CCC4=CC(=O)C=C[C@@]4(C)[C@@]3(Cl)[C@@H](O)C[C@]2(C)[C@]1(OC(=O)c1ccco1)C(=O)CCl [ECU] the result was Potency 8.912 µM (inhibitor, single point).

For reference, 2 entries once more:

For C[C@H]1C[C@@H]2[C@H]3CCC4=CC(=O)C=C[C@@]4(C)[C@@]3(Cl)[C@@H](O)C[C@]2(C)[C@]1(OC(=O)c1ccco1)C(=O)CCl [P93_24] the result was Potency 7.08 µM (inhibitor, single point).
For Cc1ccc(C(=O)C(C)CN2CCCCC2)cc1 (stereo not given) [ECU] the result was Potency 17.78 µM (inhibitor, single point).

Source: PubChem BioAssay AID504749 (NCATS, 2011).